Among the data in PubChem BioAssay AID493014 (National Center for Advancing Translational Sciences (NCATS), 2011) are AC50 values, retold here.

The structures appear in SMILES notation. The list shows a part of the results. Further columns of the screen follow, without active or inactive calls. Most of these compounds were active or inconclusive in the main read-out, so they are no random draw. Potencies come from curve fits of mixed quality, noted in brackets.

The test is described as follows: qHTS Assay to Find Inhibitors of Chronic Active B-Cell Receptor Signaling. To be noted: ABC-DLBCL IkBa-CBG/CBR reporter, luminescence ratio (green luciferase fused to IkBa over red control in TMD8 lymphoma cells), 4 h. The method, boiled down: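 Doxycycline induced both beetle luciferases in TMD8 lymphoma cells; IKK-driven degradation limits the IkappaBalpha-fused green signal, while red luminescence normalises for cell number and nonspecific effects. Compounds tested up to 46 uM, 4 hrs.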

Where [1] appears, read: measured here: CBR red luminescence, cell number.
The mark [2] stands for this setting: measured here: IkBa-CBG green luminescence.

What is called AC50 is the midpoint of the concentration-response curve, whichever way the signal moves. Turning to `O=C1CCC/C(=N/NC(=O)c2ccc(CN3c4cccc5cccc(c45)S3(=O)=O)cc2)C1`, the AC50 under setting [1] was 10.3 µM [rising, single point]. For `C/C(CC(=O)N(C(C)C)C(C)C)=N\NC(=O)c1ccccc1Br`, under setting [1], the AC50 was 23.1 µM [falling, partial curve].

Regarding `COc1ccc(CNC(=O)COC(=O)c2ccco2)cc1`, the AC50 under setting [1] is 35.5 µM [rising, partial curve, poor fit].

Turning to `O=C(CNC(=O)c1ccncc1)N/N=C/c1ccc(O)cc1O`, the AC50 under setting [1] was 10 µM [falling, partial curve, poor fit]. The same measure, in the same setting: under `CCn1ccc(C(=O)Nc2ccc3c(c2)CCC3)n1` stands 0.708 µM [rising, full curve, poor fit]; under `Cc1cccc(-n2ncc3c(Nc4ccc(F)cc4)ncnc32)c1`, 0.0259 µM [falling, full curve, poor fit]. Consider `C=CCNC(=S)N/N=C/c1ccc(-c2ccc(OC)cc2)o1`, for which the AC50 runs as follows: under setting [1], 35.5 µM [falling, single point]; under setting [2], 5.62 µM [falling, single point]. On to `S=C(NC1CCCC1)N1CCN(c2ccccn2)CC1`, for which, under setting [1], the AC50 is 14.6 µM [rising, single point].

`CCOC(=O)N1CCN(C(=O)/C(=C/c2cccs2)NC(=O)c2cccs2)CC1`: the AC50 under setting [1] was 17.8 µM [rising, partial curve, poor fit].

For `COc1cc2cc(CN(CCO)S(=O)(=O)c3ccccc3Cl)c(=O)[nH]c2cc1OC`, the AC50 under setting [1] is 2.24 µM [rising, full curve, poor fit]. Same read-out and setting: under `COc1cccc(C2NC(CC(C)C)(C(=O)O)C3C(=O)N(Cc4ccccc4)C(=O)C23)c1O` (stereo not drawn) stands 23.1 µM [rising, single point]; under `Cc1ccc(Sc2cc(C)nc(-c3ccccn3)n2)cc1`, 6.31 µM [rising, single point].

Turning to `O=C(NCc1ccc(Cl)cc1)C(=O)c1cn(CC(=O)N2CCOCC2)c2ccccc12`, under setting [1], the AC50 is 1 µM [falling, full curve]. The same measure, in the same setting: under `COc1cccc(NC(=O)c2ccc(-n3cnnn3)cc2)c1` stands 5.62 µM [falling, partial curve, poor fit]. As to `CCOc1ccc(C(=O)OCC(=O)Nc2cccc(S(=O)(=O)N3CCCC3)c2)cc1`, the AC50 under setting [2] is 32.6 µM [falling, partial curve, poor fit]. Consider `Cc1ccc(C(=O)COC(=O)C2C3C=CC(C3)C2C(=O)OCC(=O)c2ccc(C)c(C)c2)cc1C` (stereo not drawn), for which, under setting [1], the AC50 was 2.51 µM [falling, full curve]. Take `Cc1ccc(C)c(NC(=O)C2COc3ccccc3O2)c1` (stereo not drawn): under setting [1], the AC50 was 8.91 µM [rising, partial curve, poor fit].
